# Source: patent US11547651B2, “Ecofriendly biofilm-disrupting antimicrobial formulations, their development, and their uses” (Alira Health Boston LLC, priority 2017, dated 2023)
# Some results were stated once for a whole list of compounds, not compound by compound.
# Tested on: aquatic and terrestrial organisms
# Assay: Eco-friendliness from ECOTOX database records
# Settings: point scale 5 to 1 from number of ECOTOX references
# Excerpt: Eco-friendliness ratings were based on the number of references from the ECOTOX database. The scoring used the following point scale: 5) no toxicity to aquatic and terrestrial organisms, 4) 1-10 result records, 3) 11-25, 2) 26-50, 1) >51, and ND for not determined. Commonly used compounds such as Triclosan and silver were given an unacceptable Ecofriendly score of 1.
smiles,measurement,value
"Oc1cc(Cl)ccc1Oc1ccc(Cl)cc1Cl [Triclosan, 5-Chloro-2-(2,4-dichlorophenoxy)phenol]",Ecofriendly (ecotoxicology) score,1 (>51)
